These are yes or no findings as the source states them, for the method shown. Binding seen in cells or lysates may run through a third protein. Some results given as binding are weak or reduced against the parent protein; the word gives no strength. Tags and fused reporters may be left off the sequences shown.

Protein sequences, listed by entry. Tags and fused reporters are not part of them.
UniProt P22147: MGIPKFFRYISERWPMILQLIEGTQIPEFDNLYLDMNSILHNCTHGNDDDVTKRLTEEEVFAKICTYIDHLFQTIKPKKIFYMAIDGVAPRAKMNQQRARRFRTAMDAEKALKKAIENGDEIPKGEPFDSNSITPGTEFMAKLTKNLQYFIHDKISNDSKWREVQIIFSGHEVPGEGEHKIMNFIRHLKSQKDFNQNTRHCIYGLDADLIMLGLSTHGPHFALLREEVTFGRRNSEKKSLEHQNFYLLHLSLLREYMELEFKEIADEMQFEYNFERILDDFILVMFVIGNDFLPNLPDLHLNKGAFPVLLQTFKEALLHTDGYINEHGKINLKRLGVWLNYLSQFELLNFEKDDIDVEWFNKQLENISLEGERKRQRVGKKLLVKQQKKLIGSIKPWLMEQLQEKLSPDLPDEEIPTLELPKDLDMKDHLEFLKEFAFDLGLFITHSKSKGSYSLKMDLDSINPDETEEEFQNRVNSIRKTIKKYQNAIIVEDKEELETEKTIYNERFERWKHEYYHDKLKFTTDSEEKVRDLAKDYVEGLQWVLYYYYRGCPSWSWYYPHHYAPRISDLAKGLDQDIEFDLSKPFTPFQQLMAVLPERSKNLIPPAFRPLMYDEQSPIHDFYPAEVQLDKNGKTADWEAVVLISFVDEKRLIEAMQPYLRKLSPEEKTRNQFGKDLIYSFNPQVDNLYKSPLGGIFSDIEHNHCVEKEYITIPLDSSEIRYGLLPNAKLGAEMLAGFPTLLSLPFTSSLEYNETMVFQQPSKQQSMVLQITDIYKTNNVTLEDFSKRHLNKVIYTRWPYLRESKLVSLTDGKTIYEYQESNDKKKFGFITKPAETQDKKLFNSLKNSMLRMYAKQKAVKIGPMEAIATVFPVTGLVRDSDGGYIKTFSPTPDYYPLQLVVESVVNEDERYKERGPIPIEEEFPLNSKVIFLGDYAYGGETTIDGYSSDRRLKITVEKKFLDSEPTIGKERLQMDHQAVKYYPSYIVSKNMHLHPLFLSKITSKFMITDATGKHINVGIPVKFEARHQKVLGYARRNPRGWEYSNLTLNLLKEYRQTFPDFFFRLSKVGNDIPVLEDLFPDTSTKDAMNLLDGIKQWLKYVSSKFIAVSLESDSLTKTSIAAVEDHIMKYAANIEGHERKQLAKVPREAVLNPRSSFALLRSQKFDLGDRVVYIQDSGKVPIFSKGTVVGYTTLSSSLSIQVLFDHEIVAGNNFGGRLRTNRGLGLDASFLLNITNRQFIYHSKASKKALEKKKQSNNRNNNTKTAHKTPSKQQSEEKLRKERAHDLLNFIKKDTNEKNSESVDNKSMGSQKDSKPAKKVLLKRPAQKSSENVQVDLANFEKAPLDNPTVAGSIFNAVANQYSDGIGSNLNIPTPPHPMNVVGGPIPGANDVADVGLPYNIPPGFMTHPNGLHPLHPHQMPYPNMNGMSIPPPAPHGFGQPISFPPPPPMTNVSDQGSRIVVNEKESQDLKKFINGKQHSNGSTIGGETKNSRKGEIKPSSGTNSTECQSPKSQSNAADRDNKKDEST
UniProt P38249: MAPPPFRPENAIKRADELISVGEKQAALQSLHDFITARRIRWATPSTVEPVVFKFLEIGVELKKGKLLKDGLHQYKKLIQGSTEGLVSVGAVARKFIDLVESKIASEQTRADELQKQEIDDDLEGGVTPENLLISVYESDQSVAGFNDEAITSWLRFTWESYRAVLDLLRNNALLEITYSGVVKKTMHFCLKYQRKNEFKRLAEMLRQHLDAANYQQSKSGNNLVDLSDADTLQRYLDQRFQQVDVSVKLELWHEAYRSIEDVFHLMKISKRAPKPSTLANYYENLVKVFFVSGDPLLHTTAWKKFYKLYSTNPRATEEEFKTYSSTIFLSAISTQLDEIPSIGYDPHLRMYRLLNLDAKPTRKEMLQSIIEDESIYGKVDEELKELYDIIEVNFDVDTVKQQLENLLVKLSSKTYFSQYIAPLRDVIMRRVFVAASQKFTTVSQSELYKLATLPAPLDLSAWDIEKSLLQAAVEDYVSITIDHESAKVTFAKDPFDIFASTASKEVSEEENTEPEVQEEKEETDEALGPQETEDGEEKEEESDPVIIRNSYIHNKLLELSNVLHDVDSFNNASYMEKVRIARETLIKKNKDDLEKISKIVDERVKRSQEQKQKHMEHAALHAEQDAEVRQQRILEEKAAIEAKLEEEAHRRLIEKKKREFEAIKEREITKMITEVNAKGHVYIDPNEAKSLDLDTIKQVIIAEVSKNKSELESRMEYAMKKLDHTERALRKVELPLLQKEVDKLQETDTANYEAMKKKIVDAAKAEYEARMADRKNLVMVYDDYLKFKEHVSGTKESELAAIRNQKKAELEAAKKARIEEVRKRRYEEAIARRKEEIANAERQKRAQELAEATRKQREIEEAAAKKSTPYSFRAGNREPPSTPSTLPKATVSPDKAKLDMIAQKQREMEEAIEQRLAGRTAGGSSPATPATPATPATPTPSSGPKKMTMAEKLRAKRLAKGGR

We go through eleven molecules from article PMC6288840.

To fix the notation:
B1: Pbp1-GFP (protein, UniProt P53297 1-722)
chain: MKGNFRKRDSSTNSRKGGNSDSNYTNGGVPNQNNSSMFYENPEITRNFDDRQDYLLANSIGSDVTVTVTSGVKYTGLLVSCNLESTNGIDVVLRFPRVADSGVSDSVDDLAKTLGETLLIHGEDVAELELKNIDLSLDEKWENSKAQETTPARTNIEKERVNGESNEVTKFRTDVDISGSGREIKERKLEKWTPEEGAEHFDINKGKALEDDSASWDQFAVNEKKFGVKSTFDEHLYTTKINKDDPNYSKRLQEAERIAKEIESQGTSGNIHIAEDRGIIIDDSGLDEEDLYSGVDRRGDELLAALKSNSKPNSNKGNRYVPPTLRQQPHHMDPAIISSSNSNKNENAVSTDTSTPAAAGAPEGKPPQKTSKNKKSLSSKEAQIEELKKFSEKFKVPYDIPKDMLEVLKRSSSTLKSNSSLPPKPISKTPSAKTVSPTTQISAGKSESRRSGSNISQGQSSTGHTTRSSTSLRRRNHGSFFGAKNPHTNDAKRVLFGKSFNMFIKSKEAHDEKKKGDDASENMEPFFIEKPYFTAPTWLNTIEESYKTFFPDEDTAIQEAQTRFQQRQLNSMGNAVPGMNPAMGMNMGGMMGFPMGGPSASPNPMMNGFAAGSMGMYMPFQPQPMFYHPSMPQMMPVMGSNGAEEGGGNISPHVPAGFMAAGPGAPMGAFGYPGGIPFQGMMGSGPSGMPANGSAMHSHGHSRNYHQTSHHGHHNSSTSGHK
B2: Edc3-GFP (protein, UniProt P39998 1-551)
chain: MSQFVGFGVQVELKDGKLIQGKIAKATSKGLTLNDVQFGDGGKSQAFKVRASRLKDLKVLTVASQSGKRKQQRQQQQQNDYNQNRGEHIDWQDDDVSKIKQQEDFDFQRNLGMFNKKDVFAQLKQNDDILPENRLQGHNRKQTQLQQNNYQNDELVIPDAKKDSWNKISSRNEQSTHQSQPQQDAQDDLVLEDDEHEYDVDDIDDPKYLPITQSLNITHLIHSATNSPSINDKTKGTVINDKDQVLAKLGQMIISQSRSNSTSLPAANKQTTIRSKNTKQNIPMATPVQLLEMESITSEFFSINSAGLLENFAVNASFFLKQKLGGRARLRLQNSNPEPLVVILASDSNRSGAKALALGRHLCQTGHIRVITLFTCSQNELQDSMVKKQTDIYKKCGGKIVNSVSSLESAMETLNSPVEIVIDAMQGYDCTLSDLAGTSEVIESRIKSMISWCNKQRGSTKVWSLDIPNGFDAGSGMPDIFFSDRIEATGIICSGWPLIAINNLIANLPSLEDAVLIDIGIPQGAYSQRTSLRKFQNCDLFVTDGSLLLDL
B3: Hsp26-GFP (protein, UniProt P15992 1-214)
chain: MSFNSPFFDFFDNINNEVDAFNRLLGEGGLRGYAPRRQLANTPAKDSTGKEVARPNNYAGALYDPRDETLDDWFDNDLSLFPSGFGFPRSVAVPVDILDHDNNYELKVVVPGVKSKKDIDIEYHQNKNQILVSGEIPSTLNEESKDKVKVKESSSGKFKRVITLPDYPGVDADNIKADYANGVLTLTVPKLKPQKDGKNHVKKIEVSSQESWGN
B4: YGR250C/Rie1-GFP (protein, UniProt P53316 1-781)
chain: MNIAEEPSDEVISSGPEDTDICSQQTSASAEAGDQSIKIERKTSTGLQLEQLANTNLLTIRIKWQLQEEEDDHCNSRITDQIMDTIQHYKGISVNNSDTETYEFLPDTRRLQVLEQNKDIYLYEHGSQEYEKSYKDNEEEDDWRYDTVLQAQFKYPKSLENACTDISELLKSEPIGQHIDKWSIGVNKHALTYPGNIFVGGIAKSLSIGELSFLFSKYGPILSMKLIYDKTKGEPNGYGFISYPLGSQASLCIKELNGRTVNGSTLFINYHVERKERERIHWDHVKENNNDDNFRCLFIGNLPYHNPEKVETLITPKEVIEVIKKELSKKFPDFDIISYYFPKRSNTRSSSSVSFNEEGSVESNKSSNNTNGNAQDEDMLKGYGFIKLINHEQALAAIETFNGFMWHGNRLVVNKAVQHKVYNNHNSHDRHPSISNHNDMEVLEFANNPMYDYNNYTYDRYYFNNNKNGNSNDTSNVRYFDSVRSTPVAEKMDLFYPQRESFSEGRGQRVPRFMGNKFDMYQYPSTSYSLPIPMSNQQESNLYVKHIPLSWTDEDLYDFYKSFGEIISVKVITVGGSKNKYRQQSNDSSSDNDLPVGSSRGYGFVSFESPLDAAKAILNTDGYQVSKDQVLSVSFAQKRGNLSSSDDDDQSQTDNSSKFQNFQPHNDYHKAYPTKYNKKFINALMTQNQSQQQVSRENYFIPLQYPNTNTKPVNSYNLISANQNNANWMMPMFPSFGFIPQVPPVPYIIPPQNPAANHIPIMANGSNEEEEFSSGDYSMDY
B5: Pat1-GFP (protein, UniProt P25644 1-796)
chain: MSFFGLENSGNARDGPLDFEESYKGYGEHELEENDYLNDETFGDNVQVGTDFDFGNPHSSGSSGNAIGGNGVGATARSYVAATAEGISGPRTDGTAAAGPLDLKPMESLWSTAPPPAMAPSPQSTMAPAPAPQQMAPLQPILSMQDLERQQRQMQQQFMNFHAMGHPQGLPQGPPQQQFPMQPASGQPGPSQFAPPPPPPGVNVNMNQMPMGPVQVPVQASPSPIGMSNTPSPGPVVGATKMPLQSGRRSKRDLSPEEQRRLQIRHAKVEKILKYSGLMTPRDKDFITRYQLSQIVTEDPYNEDFYFQVYKIIQRGGITSESNKGLIARAYLEHSGHRLGGRYKRTDIALQRMQSQVEKAVTVAKERPSKLKDQQAAAGNSSQDNKQANTVLGKISSTLNSKNPRRQLQIPRQQPSDPDALKDVTDSLTNVDLASSGSSSTGSSAAAVASKQRRRSSYAFNNGNGATNLNKSGGKKFILELIETVYEEILDLEANLRNGQQTDSTAMWEALHIDDSSYDVNPFISMLSFDKGIKIMPRIFNFLDKQQKLKILQKIFNELSHLQIIILSSYKTTPKPTLTQLKKVDLFQMIILKIIVSFLSNNSNFIEIMGLLLQLIRNNNVSFLTTSKIGLNLITILISRAALIKQDSSRSNILSSPEISTWNEIYDKLFTSLESKIQLIFPPREYNDHIMRLQNDKFMDEAYIWQFLASLALSGKLNHQRIIIDEVRDEIFATINEAETLQKKEKELSVLPQRSQELDTELKSIIYNKEKLYQDLNLFLNVMGLVYRDGEISELK
B6: Nrp1-GFP (protein, UniProt P32770 1-719)
chain: MHYVVLELQVAHLPDTPKDQCRIANIAFQIVNAETLVCHYGTNSLPSIEVNGTTKSLESAMVQLDKDIHDVIGNDDFVLVSLYSTWHIRVTLPRQARDDGFILTSYLQHPKVFDLWKEFDRWCVNHPEILGQKKAISNNNCNTKSISINAAKNTKDLDEIVRILEVSIPTEEAGSVPEIYSLLKRTTDILIQLHKKCTSPEDMESVLTKPYDSHTDIRAFLQEKSKILYMNNLPPDTTQSELESWFTQYGVRPVGFWTVKNIVEDTSNVNNNWSLNNSPYVEDQDSISGFVVFQTHEEATEVLALNGRSILSNLANTKQPRVVEHVLELQPSSTGVLDKAQEILSPFPQSKNKPRPGDWNCPSCGFSNFQRRTACFRCSFPAPSNSQIHTANSNNNVNSSRNNLNNRVNSGSSSNISNTAANHPYGAPEFNMIANNTPAALTYNRAHFPAITPLSRQNSLNMAPSNSGSPIIIADHFSGNNNIAPNYRYNNNINNNNNNINNMTNNRYNINNNINGNGNGNGNNSNNNNNHNNNHNNNHHNGSINSNSNTNNNNNNNNGNNSNNCNSNIGMGGCGSNMPFRAGDWKCSTCTYHNFAKNVVCLRCGGPKSISGDASETNHYIDSSTFGPASRTPSNNNISVNTNGGSNAGRTDGNDNKGRDISLMEFMSPPLSMATKSMKEGDGNGSSFNEFKSDKANVNFSNVGDNSAFGNGFNSSIRW
B7: Scd6-GFP (protein, UniProt P45978 1-349)
chain: MSQYIGKTISLISVTDNRYVGLLEDIDSEKGTVTLKEVRCFGTEGRKNWGPEEIYPNPTVYNSVKFNGSEVKDLSILDANINDIQPVVPQMMPPASQFPPQQAQSPPQAQAQAHVQTNPQVPKPESNVPAAVAGYGVYTPTSTETATASMNDKSTPQDTNVNSQSRERGKNGENEPKYQRNKNRSSNRPPQSNRNFKVDIPNEDFDFQSNNAKFTKGDSTDVEKEKELESAVHKQDESDEQFYNKKSSFFDTISTSTETNTNMRWQEEKMLNVDTFGQASARPRFHSRGLGRGRGNYRGNRGNRGRGGQRGNYQNRNNYQNDSGAYQNQNDSYSRPANQFSQPPSNVEF
B8: Mss116-GFP (protein, UniProt P15424 27-664)
chain: NHITWAVSRRLYNDGNRDQRNFGRNQRNNNSNRYRNSRFNSRPRTRSREDDDEVHFDKTTFSKLIHVPKEDNSKEVTLDSLLEEGVLDKEIHKAITRMEFPGLTPVQQKTIKPILSSEDHDVIARAKTGTGKTFAFLIPIFQHLINTKFDSQYMVKAVIVAPTRDLALQIEAEVKKIHDMNYGLKKYACVSLVGGTDFRAAMNKMNKLRPNIVIATPGRLIDVLEKYSNKFFRFVDYKVLDEADRLLEIGFRDDLETISGILNEKNSKSADNIKTLLFSATLDDKVQKLANNIMNKKECLFLDTVDKNEPEAHERIDQSVVISEKFANSIFAAVEHIKKQIKERDSNYKAIIFAPTVKFTSFLCSILKNEFKKDLPILEFHGKITQNKRTSLVKRFKKDESGILVCTDVGARGMDFPNVHEVLQIGVPSELANYIHRIGRTARSGKEGSSVLFICKDELPFVRELEDAKNIVIAKQEKYEPSEEIKSEVLEAVTEEPEDISDIVISLISSYRSCIKEYRFSERRILPEIASTYGVLLNDPQLKIPVSRRFLDKLGLSRSPIGKAMFEIRDYSSRDGNNKSYDYDDDSEISFRGNKNYNNRSQNRDYDDEPFRRSNNNRRSFSRSNDKNNYSSRNSNIY
B9: Lsm3-GFP (protein, UniProt P57743 1-89)
chain: METPLDLLKLNLDERVYIKLRGARTLVGTLQAFDSHCNIVLSDAVETIYQLNNEELSESERRCEMVFIRGDTVTLISTPSEDDDGAVEI
B10: Arx1-GFP (protein, UniProt Q03862 1-593)
chain: MALAISHEDTQILLKDKNILQESVLNKYRTAGQIAQTALKYVTSLINDSYHSKTTQRQLTVPELCLLTDSFILTRLEQYYKNKVNERGIAIPTTIDIDQISGGWCPEIDDTQNLLNWNKGKDSTFASSVTGTLRPGDLVKITLGVHIDGYTSEVSHTMVIYPVDETKPILQPTGPLLGGKADAVAAAHIAMETVVALLACALTPEKLPASLGGTSSGITGQLIRTIVDTIARSYNCGVVPGSRVRRIRRFLAGQNEGIVAEREYKGVVWTESHQEADLLSNTDAKDLTVVDRGQSTPFTNVSAIPSDDFVVQSGEVYLIDLKMASLEHCTKKGLVTLETVDSYTGKSHKAGELIARPGAYVRDFAQTHILKLKTSRQLLTKIDKQGVYPFKLSHLSSNFPFVHENEEELQSLKKDLKSFRLGMSEISNNYLCVESPIQIARWVPWDHILKATNPNGNLSYDATSTLTLPGHELPLPKLGVSAIKLKSLMNSTKESISLPVARECNTIVLCDSSVSTTDRPELLRLTGGSKTCQPSWIHSQHELNPQDSIVQGIFQLATLAKDKRFGLLLKETQPMKQKSVETSNGGVEETMKM

The assay concerns the target Xrn1-Flag (S. cerevisiae) (UniProt P22147). In words: co-IP; Xrn1-Flag immunoprecipitated with Flag antibodies from yeast cells that also carry a GFP-tagged partner; wild type or rad53 deletion cells, untreated or treated with 0.05% MMS for 3 hr.
On to Rpg1-GFP (from UniProt P38249 1-964), for which the binding entry is recorded as “binds”. Regarding B1, the binding result was “binds”.

B2: the binding result is “binds”. Under B3 stands “binds”; under B4, “binds”; under B5, “binds”. As to B6, the binding entry was “binds”.

As to B7, the binding result was “binds”. On to B8, for which the binding entry is recorded as “binds”. Under B9 stands “binds”; under B10, “binds”.
